Measured values reported in patent US8507410B2, “Pyridazinone compound and use thereof” (Sumitomo Chemical Company, Limited, priority 2009, dated 2013).
Some of these results come from one statement about several compounds together.

Legend:
Type in all cases: in vivo
Plutella xylostella = experiment: Test Example 2-4: sprayed cabbage, second-instar larvae of Plutella xylostella; conditions: 500 ppm, 20 mL/cup sprayed on cabbage; 25° C., 5 days
Echinochloa crus-galli = experiment: Test Example 1-2: foliar spray, controlling effect on Echinochloa crus-galli; conditions: treatment amount 1,000 g/ha; sprayed at second- to third-leaf stage; visually evaluated after 20 days
Method: A plastic cup with a diameter of 8 cm and a depth of 6.5 cm was filled with soil. Seeds of Echinochloa crus-galli were sowed in the cup, and then the plant was grown until the second- to third-leaf stage. Then, a determined amount of a test solution containing the compound of the present invention was sprayed onto the whole plant uniformly. The test solution was prepared by dissolving a predetermined amount of the compound of the present invention in a 2% solution of Tween 20 (polyoxyethylene sorbitan fatty acid ester, MP Biomedicals, Inc.) in dimethylformamide and then diluting the solution with water. After the spray treatment, the plant was grown in a greenhouse. After 20 days, a controlling effect of the compound on Echinochloa crus-galli was visually evaluated. The effect was classified into 11 levels, from 0 to 10 (0 represents “no effect”; 10 represents “complete death”; and a state of the plant therebetween is classified into 1 to 9).
Compound D was similarly tested as a comparative example.

Nilaparvata lugens = experiment: Test Example 2-5: sprayed rice seedling, first-instar larvae of Nilaparvata lugens; conditions: 500 ppm, 10 mL sprayed on rice seedling; 25° C., 6 days
Aphis gossypii = experiment: Test Example 2-9: cucumber root immersion, imagoes of Aphis gossypii; conditions: 500 ppm, root portion of cucumber seedling immersed in 5 ml; insects added after one day, counted after 7 days

Row | SMILES | death rate (Plutella xylostella) [%] | controlling effect on Echinochloa crus-galli (11 levels, 0 to 10) (Echinochloa crus-galli) | controlling value (Nilaparvata lugens) [%] | controlling value (Aphis gossypii) [%]
1 | COCOc1c(C)nn(C)c(=O)c1-c1cc(-c2ccc(Cl)cc2)ccc1C [I-1-6] | ≥ 80 | ≥ 8 | ≥ 90 | ≥ 90
2 | CSCOc1c(C)nn(C)c(=O)c1-c1cc(-c2ccc(Cl)cc2)ccc1C [I-2-3] | ≥ 80 | ≥ 8 | ≥ 90 | 
